# Reference: PubChem BioAssay AID1487 (National Center for Advancing Translational Sciences (NCATS), 2009)
# In all, about 200,000 compounds went through this assay and about 25 (0.01%) were called active. Inconclusive results, whose numbers are uncertain, are shown with a selection of clear calls. The call rests on the fitted dose curve; in most records, active means well fitted inhibition curve with a large enough effect in the signal ratio, with a control signal flat (not every such curve was filed as active); inconclusive means small, poorly fitted or top-dose-only effect, or effect the other way, or a change in a side signal; inactive means flat fitted curve, though single readings scatter; the % refers to the signal ratio. A potency beside an inconclusive call is a rough fit, not a confirmed value.
# Assay: qHTS Assay for Modulators of Lamin A Splicing
# Conditions: HeLa LMNA splicing GFP/RFP minigene ratio, 48 h
# Outline: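 S3 HeLa stable clones carrying a lamin A-EGFP splicing minigene plus DsRed2 were seeded at 600 cells/well in Opti-MEM with 2% FBS, pin-dosed and incubated 48 h at 37°C. Acumen cytometry (488 nm) gave the GFP/RFP total-intensity ratio.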
# [1] = ratio change, negative = inhibition: at 46.1 µM (top of the series) unless noted
# On the % scale 0 is the no-effect control and ±100 the full control effect; potency means the concentration at half of the fitted maximal effect.
structure (smiles),measurement,setting,value
O=C(COc1ccccc1Cl)NC(=S)Nc1cccc(NC(=O)c2ccccc2Cl)c1,"ratio change, negative = inhibition",[1],inactive
Cc1ccccc1NC(=S)Nc1cccc2cnccc12,"ratio change, negative = inhibition",[1],inactive: 13.5% [at 9.22 µM]
COc1ccc2nc(N(Cc3cccnc3)C(=O)C3COc4ccccc4O3)sc2c1 (stereo not drawn),"ratio change, negative = inhibition",[1],inconclusive: 11.8% [at 46 µM]
O=C(CSc1nc2[nH]ncc2c(=O)[nH]1)N1CCCCC1,"ratio change, negative = inhibition",[1],inactive
COc1ccc(N2CCN(S(=O)(=O)CCNC(=O)C3CC(=O)N(c4ccccc4)C3)CC2)cc1 (stereo not drawn),"ratio change, negative = inhibition",[1],inconclusive: -17.8% [at 46 µM]
CN(C)CC[C@@H](c1ccc(Br)cc1)c1ccccn1,"ratio change, negative = inhibition",at 46.1 µM (top of the series),inactive: -11.2%
same,"ratio change, negative = inhibition",[1],inconclusive: 16.9%
NC(=S)N/N=C/c1ccc(-c2ccccc2)o1,Potency,[1],"inconclusive: 35.5 µM [rising, single point]"
CCN(CC(=O)NC1CCS(=O)(=O)C1)C(=O)COc1ccccc1-c1ccccc1 (stereo not drawn),"ratio change, negative = inhibition",[1],inconclusive: 19.7%
O=C(CCN1C(=O)C2C3CCC(C3)C2C1=O)Nc1ccccc1C(F)(F)F (stereo not drawn),"ratio change, negative = inhibition",[1],inconclusive: 11.4% [at 46 µM]
COc1ccc(-c2ccc(SCC(=O)N3CCCC3)nn2)cc1OC,"ratio change, negative = inhibition",[1],inactive
O=C(N/N=C/c1ccc(N2CCOCC2)o1)c1cccc(C(F)(F)F)c1,"ratio change, negative = inhibition",[1],inactive
Cn1c(CCN2CCCCC2)nc2cc(NS(=O)(=O)c3ccccc3)ccc21,Potency,[1],"inconclusive: 20 µM [falling, single point]"
Cc1cc(Nc2ccccc2C)nc(-n2nc(C)cc2C)n1,"ratio change, negative = inhibition",[1],inconclusive: 5.95% [at 46 µM]
Cc1noc(C)c1-c1nccc(N2CCN(C)CC2)n1,"ratio change, negative = inhibition",[1],inconclusive: -15.1%
CCNc1ncc2nc(-c3ccc(F)cc3)c(=O)n(CCc3ccccc3)c2n1,Potency,[1],"inconclusive: 12.6 µM [inhibitor, single point]"
COc1cc(Cl)c(C)cc1NC(C)C(=O)Nc1cc(C(F)(F)F)ccc1N1CCOCC1 (stereo not drawn),Potency,[1],"inconclusive: 22.4 µM [fluorescent, single point]"
Cc1ccc(-c2cc(-c3ccc4c(c3)OCO4)c(C#N)c(N)n2)o1,"ratio change, negative = inhibition",[1],inconclusive: -4.94%
CC1=C(c2ccc(F)cc2)S(=O)(=O)NC1=NCc1ccccc1F,"ratio change, negative = inhibition",[1],inconclusive: 12.4% [at 46 µM]
CCOc1ccc(NC(=O)Nc2nnc(CC)s2)cc1,"ratio change, negative = inhibition",[1],inactive
CN(Cc1ccco1)c1ncncc1-c1cccc(NS(C)(=O)=O)c1,"ratio change, negative = inhibition",[1],inactive
CCn1c(C)nc2cc(C(=O)NNC(=S)NC(=O)c3ccccc3)ccc21,Potency,[1],"inconclusive: 14.1 µM [inhibitor, partial curve]"
CCC(C)(C)n1nnnc1C(c1cc2ccc(OC)cc2[nH]c1=O)N1CCc2ccccc21 (stereo not drawn),"ratio change, negative = inhibition",[1],inconclusive: -35.7%

# Retrieved one by one from above, 2 records:
structure (smiles),measurement,setting,value
O=C(N/N=C/c1ccc(N2CCOCC2)o1)c1cccc(C(F)(F)F)c1,"ratio change, negative = inhibition",[1],inactive
Cc1ccc(-c2cc(-c3ccc4c(c3)OCO4)c(C#N)c(N)n2)o1,"ratio change, negative = inhibition",[1],inconclusive: -4.94%
